Laboratory results: publication PMC12288454, “Functional consequences of genetic variations in DgoR, a GntR/FadR family transcriptional repressor of D-galactonate metabolism in Escherichia coli” (Journal of Bacteriology, 2025)

How the values were obtained:
Test in all cases: EMSA
DgoR A152E = DgoR A152E (UniProt P31460); settings: 1.6 mM D-galactonate, 3.5 uM protein, binding completely abrogated; 10 nM DNA, 50 mM Tris pH 8.5, 10 mM MgCl2, 265 mM NaCl, 1 mM PMSF, 12% glycerol, 2 mM DTT, 1 ug herring sperm DNA per 20 uL, 27 C 30 min; recombinant protein; residues 1-229; protein details: C-terminal 6xHis; label: 5'-Cy5 on strand 1
DgoR R71C = DgoR R71C (UniProt P31460); settings: 6.4 mM D-galactonate, 1 uM protein, DNA completely released; 10 nM DNA, 50 mM Tris pH 8.5, 10 mM MgCl2, 265 mM NaCl, 1 mM PMSF, 12% glycerol, 2 mM DTT, 1 ug herring sperm DNA per 20 uL, 27 C 30 min; recombinant protein; residues 1-229; protein details: C-terminal 6xHis; label: 5'-Cy5 on strand 1
DgoR WT = DgoR WT (UniProt P31460); settings: 1.6 mM D-galactonate, 1 uM protein, binding completely abrogated; 10 nM DNA, 50 mM Tris pH 8.5, 10 mM MgCl2, 265 mM NaCl, 1 mM PMSF, 12% glycerol, 2 mM DTT, 1 ug herring sperm DNA per 20 uL, 27 C 30 min; recombinant protein; residues 1-229; protein details: C-terminal 6xHis; label: 5'-Cy5 on strand 1

Measured: binding result

GTGATCTAAATTGTAGTACAACAATATAAGTTTGTACTACATTACACGCACG (double strand) [dgo promoter probe GA149/GA150]
no binding: DgoR A152E | DgoR R71C | DgoR WT

Negatives hold for the conditions tested.
